Laboratory results reported in PubChem BioAssay (Tox21).
Values joined by “and” are separate entries in the source; they are usually repeats but may differ in a detail not shown here. Equal entries are not always repeated. The inconclusive results got no clear call from the source; some entries with a clear call stand among them for comparison. A potency beside an inconclusive call is a rough fit, not a confirmed value. Active and inactive are the calls of the source. Calls come from the whole dose curve.

Columns and labels:
[1] = p53 small molecule agonists, cell-based qHTS assay with human liver microsomes (AID 1963577); conditions: HCT-116 p53RE-bla with human liver microsomes, ratio, 16 h; activation: at 66 µM (top of the series) unless noted;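 for activation: p53 response element beta-lactamase reporter cells with liver microsomes plus NADPH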
In short: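 p53RE-bla cells, 4,000/well, compound added after 5 h, with human liver microsomes 0.5 mg/mL and NADPH 0.5 mg/mL final; 16 h at 37 C, then LiveBLAzer 2 h RT, fluorescence.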

[2] = molecular target: Beta-2 adrenergic receptor (Homo sapiens) (UniProt P07550); assay: Adrenergic beta2 receptor (ADRB2) small molecule agonists, cell-based qHTS assay (AID 1963593); conditions: CHO-ADRB2 cells, cAMP HTRF, 30 min; activation: at 92.4 µM (top of the series) unless noted;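 for activation: CHO cells stably overexpressing human ADRB2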
In short: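 CHO cells stably over-expressing ADRB2 were plated overnight at 37C, then dosed with compounds plus a stimulation mix containing 100uM IBMX and 25uM Ro-20-1724 for 0.5hr at room temperature. cAMP was measured by HTRF competition, 1hr.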
% is set by controls: 0 for no effect and ±100 for the full control effect; potency is the fitted concentration of half-maximal effect.

SMILES	Potency [1]	Potency [2]	activation [1]	activation [2]
Nc1c(I)cc(I)c(C(=O)N(CCC(=O)O)c2ccccc2)c1I	inconclusive: 15.8 µM [rising, partial curve, poor fit]	inactive	–	–
CC1=CCC(O)(C(C)C)CC1 (stereo not drawn)	inactive	inactive	–	–
O=C1OC(=O)c2cc(Oc3ccc4c(c3)C(=O)OC4=O)ccc21	inconclusive: 51.3 µM [fluorescent, single point]	inconclusive: 1.09 µM [inhibitor, single point]	–	–
CCCOC(C)=O	inactive	inactive	–	–
Cn1c(=O)c2c(ncn2CC(O)CO)n(C)c1=O (stereo not drawn)	inactive	inconclusive: 0.106 µM [inhibitor]	–	–
C=CCOCC(O)CCl (stereo not drawn)	–	–	inconclusive: 15.2%	inconclusive: -49.4%
CC1(C)CC(OC(=O)CCCCCCCCC(=O)OC2CC(C)(C)NC(C)(C)C2)CC(C)(C)N1	–	–	inactive: 1.98% [at 13.5 µM]	inconclusive: 23.4% [at 19 µM]
O=C1CC2(CCCC2)CC(=O)N1	inactive	–	–	inconclusive: 8.31% [at 42.5 µM]
N[C@@H](CS)C(=O)O	inconclusive: 32.8 µM [fluorescent, partial curve]	–	–	inconclusive: 5.17%
CC12CCC(C(=O)C1=O)C2(C)C (stereo not drawn)	inactive	inactive	–	–
CCN(CC)c1cccc(O)c1	–	inconclusive: 2.48 µM [inhibitor, full curve, poor fit]	inconclusive: 17.2%	–
Cc1ccccc1S(N)(=O)=O	inactive	–	–	inconclusive: 24.5%
Cc1ccc(S(=O)(=O)NCl)cc1	inconclusive: 35 µM [fluorescent, partial curve]	–	–	inconclusive: 2.88%
C=CC(=O)[O-].C=CC(=O)[O-].[Zn+2]	inconclusive: 50.1 µM [fluorescent, partial curve, poor fit]	inactive	–	–
C=CC[N+](C)(C)CC=C	inconclusive: 51.7 µM [fluorescent, partial curve, poor fit]	inactive	–	–
O=C=Nc1ccc(Cl)c(Cl)c1	–	inconclusive: 23.9 µM [inhibitor, single point]	inconclusive: 20.9%	–
CCCCOC(=O)C(C)OC(=O)CCC (stereo not drawn)	inactive	inactive	–	–
CC(C)CCCCCCCOC(=O)CCCCC(=O)OCCCCCCCC(C)C	inconclusive: 10.2 µM [fluorescent, full curve]	–	–	inconclusive: -2.57% and inconclusive: 13%
Cc1ccnc(N)c1	inactive	–	–	inconclusive: -31.4%
NC(N)=NC(=O)c1nc(Cl)c(N)nc1N	inconclusive: 46 µM [fluorescent]	inactive and inconclusive: 31.8 µM [inhibitor, partial curve] and inconclusive: 26.6 µM [inhibitor, partial curve, poor fit]	–	–
C=C(CC(=O)O)C(=O)O	inconclusive: 52.3 µM [fluorescent, partial curve, poor fit] and inconclusive: 47.7 µM [activator]	inactive	–	–
Cc1ccc(C(=O)O)cc1	inactive	–	–	inconclusive: -7.35%
O=C(O)CCc1nc2ccccc2[nH]1	inconclusive: 0.0707 µM [rising, single point]	–	–	inconclusive: 6.22% [at 42.5 µM]
NC1CCCCC1N (stereo not drawn)	inactive	inconclusive: 6.18 µM [inhibitor, single point]	–	inconclusive: -0.429%
C=CC(OCC)OCC	inactive	–	–	inconclusive: 4.87%
COCCOC(=O)C1=C(C)NC(C)=C(C(=O)OC/C=C/c2ccccc2)C1c1cccc([N+](=O)[O-])c1 (stereo not drawn)	inactive	inconclusive: 11.9 µM [inhibitor, partial curve]	–	–

Rewritten in CSV form: entries from further up.
SMILES,Potency [1],Potency [2],activation [1],activation [2]
NC(N)=NC(=O)c1nc(Cl)c(N)nc1N,inconclusive: 46 µM [fluorescent],"inactive and inconclusive: 31.8 µM [inhibitor, partial curve] and inconclusive: 26.6 µM [inhibitor, partial curve, poor fit]",–,–
C=C(CC(=O)O)C(=O)O,"inconclusive: 52.3 µM [fluorescent, partial curve, poor fit] and inconclusive: 47.7 µM [activator]",inactive,–,–
